Measured values from patent US12521381B2, “Anticoccidial agent and method for using the same” (NIHON NOHYAKU CO., LTD., priority 2020, dated 2026).
Some results were stated once for a whole list of compounds, not compound by compound.

System: chicken coccidium (Eimeria tenella)
Assay: Evaluation test of growth inhibition on chicken coccidium (Eimeria tenella)
Type: cell-based
Conditions: mammal cells infected with sporozoite of chicken coccidium; 48 hours; indirect immunofluorescence; read-out: EC50 (inhibition of growth of chicken coccidium to a mature schizont)
Protocol: Test Example 1: Evaluation Test of Growth Inhibition on Chicken Coccidium (Eimeria tenella) Each of the benzimidazole compounds represented by General Formula (1) or salts of the compounds according to the present invention was diluted with a regulating liquid to a predetermined concentration and placed in a microtiter plate. To the dilution in the plate, mammal cells infected with a sporozoite of chicken coccidium were incubated. Forty-eight hours later, the degree of inhibition on growth of chicken coccidium to a mature schizont was examined by an indirect immunofluorescence technique, and EC50 was determined by calculation.

Row | SMILES | EC50
1 | CCCCS(=O)(=O)n1c(-c2ccc(OCC(F)(F)C(F)(F)F)nc2)nc2ccccc21 [Compound 1-9] | ≤ 20 µM
2 | CCS(=O)(=O)n1c(-c2ccc(OCCOC)nc2)nc2ccccc21 [Compound 1-21] | ≤ 20 µM
3 | FC(F)(F)C(F)(F)COc1ccc(-c2nc3cc(Cl)c(Cl)cc3[nH]2)cn1 [Compound 11-4] | ≤ 20 µM
4 | CCS(=O)(=O)n1c(-c2ccc(OCC(F)(F)C(F)(F)F)nc2)nc2ccc(Br)cc21 [Compound 1-1] | ≤ 20 µM
5 | FC(F)(F)C(F)(F)COc1ccc(-c2nc3ccc(Br)cc3[nH]2)cn1 [Compound 11-1] | ≤ 20 µM
6 | O=S(=O)(C1CC1)n1c(-c2ccc(OCC(F)(F)C(F)(F)F)nc2)nc2ccccc21 [Compound 1-8] | ≤ 20 µM
7 | O=S(=O)(n1c(-c2ccc(OCC(F)(F)C(F)(F)F)nc2)nc2ccccc21)C(F)(F)F [Compound 1-10] | ≤ 20 µM
8 | CCS(=O)(=O)n1c(-c2cccnc2OCC(F)(F)C(F)(F)F)nc2ccccc21 [Compound 2-1] | ≤ 20 µM
9 | Cc1cc2nc(-c3ccc(OCC(F)(F)C(F)(F)F)nc3)[nH]c2cc1C [Compound 11-3] | ≤ 20 µM
